Laboratory results taken from the supplement of paper PMC4807443.
Structures can show the parent of a compound that is named as a salt. The list shows a part of the results. The numbers are fractions of the control, whatever unit the source prints. Most values lie at the level of the controls, where differences are scatter.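 MIN6 is a mouse insulinoma beta-cell line that stably carries a lentiviral reporter in which the Pdx1 and Ins1 promoters each drive a nucleus-targeted fluorescent protein; cells were counted by automated imaging with a Hoechst nuclear stain. In the screen, a drug was a possible hit when its Ins1 promoter readout lay beyond two median absolute deviations from the DMSO controls while Pdx1 activity stayed near normal.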

These compounds were tested on MIN6 (assay: % Pdx1+ Ins1-low (RFP-only, immature) cells relative to DMSO control (fold of DMSO control); higher = more immature Pdx1+/Ins1-low cells). Details: 8.5 µM; 48 h; glucose 5 mM.

Compared with `C[C@@H]1C[C@H]2[C@@H]3C[C@H](F)C4=CC(=O)C=C[C@]4(C)[C@@]3(Cl)[C@@H](O)C[C@]2(C)[C@H]1C(=O)COC(=O)C(C)(C)C` [Clocortolone pivalate], `CC(=O)OCC(=O)[C@@]12OC(C)(C)O[C@@H]1C[C@H]1[C@@H]3C[C@H](F)C4=CC(=O)C=C[C@]4(C)[C@@]3(F)[C@@H](O)C[C@@]12C` [Fluocinonide] is higher in “% Pdx1+ Ins1-low” value: 1.07 for the first, 1.17 for the second.

Compared with `C[C@@H](O)[C@H]1C(=O)N2C(C(=O)O)=C(S[C@@H]3CN[C@H](C(=O)N(C)C)C3)[C@H](C)[C@H]12` [Meropenem], `COc1cccc2c1C(=O)c1c(O)c3c(c(O)c1C2=O)C[C@@](O)(C(C)=O)C[C@@H]3O[C@H]1C[C@H](N)[C@H](O)[C@H](C)O1` [Daunorubicin hydrochloride] is higher in “% Pdx1+ Ins1-low” value: 1.13 for the first, 2.13 for the second.

Compared with `CC1(C)O[C@@H]2C[C@H]3[C@@H]4CCC5=CC(=O)CC[C@]5(C)[C@@]4(F)[C@@H](O)C[C@]3(C)[C@]2(C(=O)CCl)O1` [Halcinonide], `C[C@]12C=CC(=O)C=C1CC[C@H]1[C@@H]3C[C@@H](O)[C@](O)(C(=O)CO)[C@@]3(C)C[C@H](O)[C@@]12F` [Triamcinolone] is lower in “% Pdx1+ Ins1-low” value: 1.15 for the first, 1.14 for the second.

Compared with `CCOc1cc(CC(=O)N[C@@H](CC(C)C)c2ccccc2N2CCCCC2)ccc1C(=O)O` [Repaglinide], `CC(C)NC[C@@H](O)COc1ccc(CC(N)=O)cc1` [(R)-(+)-Atenolol] is higher in “% Pdx1+ Ins1-low” value: 0.746 for the first, 1.32 for the second.

First: CCCCN(CCCC)CCC(O)c1cc2c(Cl)cc(Cl)cc2c2cc(C(F)(F)F)ccc12 (configuration not stated) [Halofantrine hydrochloride]
Second: CCCCCN(CCCCC)C(=O)C(CCC(=O)O)NC(=O)c1ccc(Cl)c(Cl)c1 (configuration not stated) [Lorglumide sodium salt]
The “% Pdx1+ Ins1-low” value of the first is higher: 1.17 for the first, 0.591 for the second.

First: CC(C)(C)NC(=O)[C@@H]1C[C@@H]2CCCC[C@@H]2CN1C[C@@H](O)[C@H](Cc1ccccc1)NC(=O)[C@H](CC(N)=O)NC(=O)c1ccc2ccccc2n1 [Saquinavir mesylate]
Second: CC(=O)O[C@H]1C(=O)[C@@]2(C)[C@H]([C@H](OC(=O)c3ccccc3)[C@]3(O)C[C@H](OC(=O)[C@H](O)[C@@H](NC(=O)c4ccccc4)c4ccccc4)C(C)=C1C3(C)C)[C@]1(OC(C)=O)CO[C@@H]1C[C@@H]2O [Paclitaxel]
The “% Pdx1+ Ins1-low” value of the first is higher: 0.642 for the first, 0.619 for the second.

First: Nc1nc2c(ncn2COCCO)c(=O)[nH]1 [Acyclovir]
Second: CC(O)Cn1cnc2c1c(=O)n(C)c(=O)n2C (configuration not stated) [Proxyphylline]
The “% Pdx1+ Ins1-low” value of the first is higher: 1.28 for the first, 1.01 for the second.

First: COc1ccc(C(=O)c2ccccc2)c(O)c1 [Oxybenzone]
Second: CC(C(=O)O)c1cccc(C(=O)c2ccccc2)c1 (configuration not stated) [Ketoprofen]
The “% Pdx1+ Ins1-low” value of the first is higher: 0.795 for the first, 0.696 for the second.

Compared with `COc1ncnc(NS(=O)(=O)c2ccc(N)cc2)c1OC` [Sulfadoxine], `Cc1cc(NS(=O)(=O)c2ccc(N)cc2)no1` [Sulfamethoxazole] is higher in “% Pdx1+ Ins1-low” value: 0.739 for the first, 1.01 for the second.

Compared with `CC(=O)OCC(=O)[C@@]1(O)[C@H](C)C[C@H]2[C@@H]3CCC4=CC(=O)C=C[C@]4(C)[C@@]3(F)[C@@H](O)C[C@@]21C` [Dexamethasone acetate], `C[C@@H]1C[C@H]2[C@@H]3CCC4=CC(=O)C=C[C@]4(C)[C@@]3(Cl)[C@@H](O)C[C@]2(C)[C@@]1(OC(=O)c1ccco1)C(=O)CCl` [Mometasone furoate] is higher in “% Pdx1+ Ins1-low” value: 0.9 for the first, 1.49 for the second.

Compared with `CCCC1O[C@@H]2C[C@H]3[C@@H]4CCC5=CC(=O)C=C[C@]5(C)[C@H]4[C@@H](O)C[C@]3(C)[C@]2(C(=O)CO)O1` (some centres not stated) [Budesonide], `C[C@]12C[C@H](O)[C@H]3[C@@H](CCC4=CC(=O)CC[C@@]43C)[C@@H]1CC[C@@H]2C(=O)CO` [Corticosterone] is higher in “% Pdx1+ Ins1-low” value: 1.19 for the first, 1.34 for the second.

Compared with `CCN(CC)CCOC(=O)C(Cc1cccc2ccccc12)CC1CCCO1` (configuration not stated) [Nafronyl oxalate], `c1ccc2c(CC3=NCCN3)cccc2c1` [Naphazoline hydrochloride] is lower in “% Pdx1+ Ins1-low” value: 1.23 for the first, 1.21 for the second.

First: C[C@H](N)[C@H](O)c1cccc(O)c1 [Metaraminol bitartrate]
Second: Cc1ccccc1OCC(O)CO (configuration not stated) [Mephenesin]
The “% Pdx1+ Ins1-low” value of the first is higher: 1.35 for the first, 0.963 for the second.

Compared with `O=C1CN(/N=C/c2ccc([N+](=O)[O-])o2)C(=O)N1` [Nitrofurantoin], `O=C1CN(/N=C/c2ccc(-c3ccc([N+](=O)[O-])cc3)o2)C(=O)N1` [Dantrolene sodium salt] is lower in “% Pdx1+ Ins1-low” value: 1.1 for the first, 1.08 for the second.

Going from `CN[C@@H]1[C@@H](O)[C@@H](O[C@@H]2[C@@H](O)[C@H](O[C@H]3OC(CN)=CC[C@H]3N)[C@@H](N)C[C@H]2N)OC[C@]1(C)O` [Sisomicin sulfate] to `NC[C@@H]1O[C@@H](O[C@H]2[C@H](O)[C@@H](O[C@H]3O[C@H](CO)[C@@H](O)[C@H](N)[C@H]3O)[C@H](N)C[C@@H]2N)[C@@H](O)[C@H](O)[C@H]1O` [Kanamycin A sulfate], the “% Pdx1+ Ins1-low” value falls from 0.935 to 0.673.

Compared with `CC1(C)S[C@@H]2[C@H](NC(=O)[C@H](C(=O)O)c3ccsc3)C(=O)N2[C@H]1C(=O)O` [Ticarcillin sodium], `CC1(C)S[C@@H]2[C@H](NC(=O)[C@H](N)c3ccccc3)C(=O)N2[C@H]1C(=O)O` [Ampicillin trihydrate] is lower in “% Pdx1+ Ins1-low” value: 0.853 for the first, 0.56 for the second.

Going from `CCOC(=O)n1ccn(C)c1=S` [Carbimazole] to `CCN(CC)CC(=O)Nc1c(C)cccc1C` [Lidocaïne hydrochloride], the “% Pdx1+ Ins1-low” value rises from 0.633 to 0.824.

Compared with `O=c1cc(-c2ccccc2)oc2cc(O)cc(O)c12` [Chrysin], `Cc1c(NC(=O)c2cccnc2)c(=O)n(-c2ccccc2)n1C` [Nifenazone] is higher in “% Pdx1+ Ins1-low” value: 0.962 for the first, 1.15 for the second.

Compared with `C/C(=C(\CCOP(=O)(O)O)SC(=O)c1ccccc1)N(C=O)Cc1cnc(C)nc1N` [Benfotiamine], `O=C(O)c1ccccc1OP(=O)(O)O` [Fosfosal] is higher in “% Pdx1+ Ins1-low” value: 0.921 for the first, 0.975 for the second.

Compared with `CCN(CC)C(=S)SSC(=S)N(CC)CC` [Disulfiram], `CCCCc1ccc2[nH]c(NC(=O)OC)nc2c1` [Parbendazole] is lower in “% Pdx1+ Ins1-low” value: 1.1 for the first, 1.04 for the second.

Going from `O=C(CCCN1CCN(c2ccccn2)CC1)c1ccc(F)cc1` [Azaperone] to `Cc1nc2ccccn2c(=O)c1CCN1CCC(C(=O)c2ccc(F)cc2)CC1` [Pirenperone], the “% Pdx1+ Ins1-low” value rises from 0.855 to 1.29.

First: C#C[C@]1(O)CC[C@H]2[C@@H]3CCC4=CCCC[C@@H]4[C@H]3CC[C@@]21C [Lynestrenol]
Second: C=C(C)[C@@H]1CC[C@]2(CO)CC[C@]3(C)[C@H](CC[C@@H]4[C@@]5(C)CC[C@H](O)C(C)(C)[C@@H]5CC[C@]43C)[C@@H]12 [Betulin]
The “% Pdx1+ Ins1-low” value of the first is lower: 0.622 for the first, 0.844 for the second.

Going from `C[C@H](CCC(=O)O)[C@H]1CC[C@H]2[C@@H]3[C@@H](O)C[C@@H]4C[C@H](O)CC[C@]4(C)[C@H]3CC[C@]12C` [Urosiol] to `CO[C@@H]1[C@@H](O[C@@H]2O[C@H](C)[C@@H](O[C@H]3C[C@@](C)(O)[C@@H](OC(=O)CC(C)C)[C@H](C)O3)[C@H](N(C)C)[C@H]2O)[C@@H](CC=O)C[C@@H](C)[C@@H](O)/C=C/C=C/C[C@@H](C)OC(=O)C[C@H]1OC(C)=O` [Josamycin], the “% Pdx1+ Ins1-low” value falls from 0.807 to 0.619.

First: CC1CC(OC(=O)c2ccccc2O)CC(C)(C)C1 (configuration not stated) [Homosalate]
Second: COC(=O)C1=CO[C@@H](C)[C@H]2CN3CCc4c([nH]c5ccccc45)[C@@H]3C[C@H]12 [Ajmalicine hydrochloride]
The “% Pdx1+ Ins1-low” value of the first is lower: 0.787 for the first, 2.73 for the second.

First: N[C@@H](Cc1cc(I)c(Oc2ccc(O)c(I)c2)c(I)c1)C(=O)O [Liothyronine]
Second: COc1ccc2cc([C@H](C)C(=O)O)ccc2c1 [Naproxen]
The “% Pdx1+ Ins1-low” value of the first is higher: 0.756 for the first, 0.683 for the second.

First: CN1CCC(=C2c3ccccc3Sc3ccccc32)CC1 [Pimethixene maleate]
Second: CN1CCN(C(c2ccccc2)c2ccccc2)CC1 [Cyclizine hydrochloride]
The “% Pdx1+ Ins1-low” value of the first is higher: 1.12 for the first, 1.11 for the second.

Going from `O=C(O)c1ccccc1C(=O)Nc1ccc(S(=O)(=O)Nc2nccs2)cc1` [Phthalylsulfathiazole] to `O=C(CCNNC(=O)c1ccncc1)NCc1ccccc1` [Nialamide], the “% Pdx1+ Ins1-low” value rises from 0.763 to 0.967.

Compared with `OCCN(CCO)c1nc(N2CCCCC2)c2nc(N(CCO)CCO)nc(N3CCCCC3)c2n1` [Dipyridamole], `Nc1cc(N2CCCCC2)nc(N)[n+]1[O-]` [Minoxidil] is higher in “% Pdx1+ Ins1-low” value: 0.933 for the first, 1.06 for the second.

First: CCC(=O)O[C@@H]1CC(=O)O[C@H](C)C/C=C/C=C/[C@H](O)[C@H](C)C[C@H](CC=O)[C@H](O[C@@H]2O[C@H](C)[C@@H](O[C@H]3C[C@@](C)(O)[C@@H](OC(=O)CC)[C@H](C)O3)[C@H](N(C)C)[C@H]2O)[C@H]1OC [Midecamycin]
Second: Nc1ncnc2c1ncn2C1OC(COP(=O)(O)O)C(O)C1O (configuration not stated) [Adenosine 5'-monophosphate monohydrate]
The “% Pdx1+ Ins1-low” value of the first is higher: 0.774 for the first, 0.696 for the second.

Compared with `CC(=O)NS(=O)(=O)c1ccc(N)cc1` [Sulfacetamide sodic hydrate], `N/C(=N\C(=O)c1nc(Cl)c(N)nc1N)NCc1ccccc1` [Benzamil hydrochloride] is higher in “% Pdx1+ Ins1-low” value: 0.779 for the first, 0.826 for the second.

First: NS(=O)(=O)c1cc2c(cc1C(F)(F)F)NCNS2(=O)=O [Hydroflumethiazide]
Second: O=c1n(CCCN2CCN(c3cccc(Cl)c3)CC2)nc2ccccn12 [Trazodone hydrochloride]
The “% Pdx1+ Ins1-low” value of the first is higher: 0.674 for the first, 0.66 for the second.

Compared with `CC[C@@H]1C(=O)OC[C@@H]1Cc1cncn1C` [Pilocarpine nitrate], `CN1C(=O)CC[C@H]1c1cccnc1` [Cotinine (-)] is lower in “% Pdx1+ Ins1-low” value: 1.68 for the first, 0.594 for the second.

Going from `NC(=O)c1cnccn1` [Pyrazinamide] to `C/C=C(/C(=C/C)c1ccc(O)cc1)c1ccc(O)cc1` [Dienestrol], the “% Pdx1+ Ins1-low” value rises from 0.479 to 0.954.

In the case of `CN1CCCN(C(c2ccccc2)c2ccc(Cl)cc2)CC1` (configuration not stated) [Homochlorcyclizine dihydrochloride], the “% Pdx1+ Ins1-low” value is reported as 0.723.
